Laboratory results taken from paper PMC7736783 (Nucleic Acids Research, 2020).

The chains behind the UniProt entries cited, without tags or fusion partners. Where a name states a change or a piece, a line headed by the entry shows the natural chain unless it says otherwise. Residues count along the entry.
UniProt Q13330: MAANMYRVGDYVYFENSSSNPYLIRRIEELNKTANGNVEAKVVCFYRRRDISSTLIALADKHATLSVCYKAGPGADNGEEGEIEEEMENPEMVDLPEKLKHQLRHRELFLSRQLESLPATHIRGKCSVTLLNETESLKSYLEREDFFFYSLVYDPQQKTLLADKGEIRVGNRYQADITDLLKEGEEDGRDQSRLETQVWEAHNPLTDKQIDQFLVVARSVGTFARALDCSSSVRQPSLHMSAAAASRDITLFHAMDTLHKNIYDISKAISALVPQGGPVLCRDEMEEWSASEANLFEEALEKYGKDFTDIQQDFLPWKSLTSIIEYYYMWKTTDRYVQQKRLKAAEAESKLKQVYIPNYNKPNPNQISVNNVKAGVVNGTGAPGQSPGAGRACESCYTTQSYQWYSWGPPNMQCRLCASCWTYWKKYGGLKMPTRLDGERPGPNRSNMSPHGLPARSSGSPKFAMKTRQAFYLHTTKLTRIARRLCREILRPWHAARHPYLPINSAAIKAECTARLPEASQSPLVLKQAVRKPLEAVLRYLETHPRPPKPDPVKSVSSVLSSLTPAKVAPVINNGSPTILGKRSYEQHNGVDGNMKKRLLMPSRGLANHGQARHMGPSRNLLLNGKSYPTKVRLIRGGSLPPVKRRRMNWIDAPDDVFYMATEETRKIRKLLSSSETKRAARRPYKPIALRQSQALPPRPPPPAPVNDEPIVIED
UniProt Q13547: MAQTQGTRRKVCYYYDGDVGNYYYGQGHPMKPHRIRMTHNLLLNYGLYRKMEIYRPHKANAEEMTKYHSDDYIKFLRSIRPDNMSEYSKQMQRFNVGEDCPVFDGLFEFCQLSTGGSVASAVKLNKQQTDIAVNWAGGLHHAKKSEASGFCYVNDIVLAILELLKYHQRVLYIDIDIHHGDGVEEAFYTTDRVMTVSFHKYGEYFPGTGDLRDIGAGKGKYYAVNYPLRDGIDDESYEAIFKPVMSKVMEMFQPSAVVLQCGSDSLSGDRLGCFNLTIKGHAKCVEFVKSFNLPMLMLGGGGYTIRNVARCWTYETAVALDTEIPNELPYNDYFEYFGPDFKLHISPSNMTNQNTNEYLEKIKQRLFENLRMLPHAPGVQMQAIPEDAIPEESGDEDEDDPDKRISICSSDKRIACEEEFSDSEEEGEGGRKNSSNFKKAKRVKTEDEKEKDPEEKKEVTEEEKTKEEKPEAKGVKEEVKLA
UniProt Q9UBB5, residues 145-411: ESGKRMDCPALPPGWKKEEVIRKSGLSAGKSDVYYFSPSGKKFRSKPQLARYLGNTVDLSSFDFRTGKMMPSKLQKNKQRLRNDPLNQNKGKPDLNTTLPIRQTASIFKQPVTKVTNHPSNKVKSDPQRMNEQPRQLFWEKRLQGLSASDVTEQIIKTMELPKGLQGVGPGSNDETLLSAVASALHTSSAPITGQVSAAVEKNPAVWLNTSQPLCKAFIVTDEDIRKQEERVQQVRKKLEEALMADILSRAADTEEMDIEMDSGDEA

Biological target: MTA1-Δ26 (MTA1 162–354 with the whole of ELM2 helix 2 deleted) (UniProt Q13330)
Experiment: co-IP; HEK293F cells co-transfected with His10-Flag3-MTA1 construct, HDAC1 and MBD2; clarified lysate on FLAG resin 30 min, washes in 50 mM Tris-HCl pH 7.5, 100 mM potassium acetate, 5% glycerol, RNase A, elution with TEV protease; SDS-PAGE; DNA ratios 1:1:1 and 1:1:4

| binding | Substance |
| --- | --- |
| binds | HDAC1 (residues 1–482) (from UniProt Q13547 1-482) (enzyme) |
| no binding | MBD2 (residues 145–411) (from UniProt Q9UBB5 145-411) (domain or fragment) |

These are yes or no findings as the source states them, for the method shown. In cells and extracts the contact can be indirect. Binding can be weak; no strength is given.
